These are yes or no findings as the source states them, for the method shown. In cells and extracts the contact can be indirect. Some results given as binding are weak or reduced against the parent protein; the word gives no strength.
How the values were obtained:
Experiment in all cases: co-IP; ES cell extracts (ZHBTc4; lysis buffer 200 mM NaCl, 50 mM Tris-HCl pH 8.0, 0.5% NP40), about 20 mg extract immunoprecipitated overnight with 2 ug control IgG, anti-Oct4, anti-Nanog or anti-Pontin antibody, protein A agarose, washes with 150 mM NaCl; immunoblot; endogenous proteins …
[1] = target: T1, Nanog (mouse (endogenous in ZHBTc4 ES cells)) (UniProt Q80Z64)
T1 sequence: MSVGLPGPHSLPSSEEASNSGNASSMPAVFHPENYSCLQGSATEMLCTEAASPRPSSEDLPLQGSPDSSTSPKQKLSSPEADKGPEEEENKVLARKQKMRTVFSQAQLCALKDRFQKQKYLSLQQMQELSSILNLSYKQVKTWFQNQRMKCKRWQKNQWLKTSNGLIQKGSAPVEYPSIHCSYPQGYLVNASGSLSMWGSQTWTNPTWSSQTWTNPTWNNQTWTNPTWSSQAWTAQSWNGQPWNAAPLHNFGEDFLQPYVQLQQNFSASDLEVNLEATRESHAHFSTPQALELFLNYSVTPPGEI

The chains behind the UniProt entries cited, without tags or fusion partners.
UniProt B2RWS6: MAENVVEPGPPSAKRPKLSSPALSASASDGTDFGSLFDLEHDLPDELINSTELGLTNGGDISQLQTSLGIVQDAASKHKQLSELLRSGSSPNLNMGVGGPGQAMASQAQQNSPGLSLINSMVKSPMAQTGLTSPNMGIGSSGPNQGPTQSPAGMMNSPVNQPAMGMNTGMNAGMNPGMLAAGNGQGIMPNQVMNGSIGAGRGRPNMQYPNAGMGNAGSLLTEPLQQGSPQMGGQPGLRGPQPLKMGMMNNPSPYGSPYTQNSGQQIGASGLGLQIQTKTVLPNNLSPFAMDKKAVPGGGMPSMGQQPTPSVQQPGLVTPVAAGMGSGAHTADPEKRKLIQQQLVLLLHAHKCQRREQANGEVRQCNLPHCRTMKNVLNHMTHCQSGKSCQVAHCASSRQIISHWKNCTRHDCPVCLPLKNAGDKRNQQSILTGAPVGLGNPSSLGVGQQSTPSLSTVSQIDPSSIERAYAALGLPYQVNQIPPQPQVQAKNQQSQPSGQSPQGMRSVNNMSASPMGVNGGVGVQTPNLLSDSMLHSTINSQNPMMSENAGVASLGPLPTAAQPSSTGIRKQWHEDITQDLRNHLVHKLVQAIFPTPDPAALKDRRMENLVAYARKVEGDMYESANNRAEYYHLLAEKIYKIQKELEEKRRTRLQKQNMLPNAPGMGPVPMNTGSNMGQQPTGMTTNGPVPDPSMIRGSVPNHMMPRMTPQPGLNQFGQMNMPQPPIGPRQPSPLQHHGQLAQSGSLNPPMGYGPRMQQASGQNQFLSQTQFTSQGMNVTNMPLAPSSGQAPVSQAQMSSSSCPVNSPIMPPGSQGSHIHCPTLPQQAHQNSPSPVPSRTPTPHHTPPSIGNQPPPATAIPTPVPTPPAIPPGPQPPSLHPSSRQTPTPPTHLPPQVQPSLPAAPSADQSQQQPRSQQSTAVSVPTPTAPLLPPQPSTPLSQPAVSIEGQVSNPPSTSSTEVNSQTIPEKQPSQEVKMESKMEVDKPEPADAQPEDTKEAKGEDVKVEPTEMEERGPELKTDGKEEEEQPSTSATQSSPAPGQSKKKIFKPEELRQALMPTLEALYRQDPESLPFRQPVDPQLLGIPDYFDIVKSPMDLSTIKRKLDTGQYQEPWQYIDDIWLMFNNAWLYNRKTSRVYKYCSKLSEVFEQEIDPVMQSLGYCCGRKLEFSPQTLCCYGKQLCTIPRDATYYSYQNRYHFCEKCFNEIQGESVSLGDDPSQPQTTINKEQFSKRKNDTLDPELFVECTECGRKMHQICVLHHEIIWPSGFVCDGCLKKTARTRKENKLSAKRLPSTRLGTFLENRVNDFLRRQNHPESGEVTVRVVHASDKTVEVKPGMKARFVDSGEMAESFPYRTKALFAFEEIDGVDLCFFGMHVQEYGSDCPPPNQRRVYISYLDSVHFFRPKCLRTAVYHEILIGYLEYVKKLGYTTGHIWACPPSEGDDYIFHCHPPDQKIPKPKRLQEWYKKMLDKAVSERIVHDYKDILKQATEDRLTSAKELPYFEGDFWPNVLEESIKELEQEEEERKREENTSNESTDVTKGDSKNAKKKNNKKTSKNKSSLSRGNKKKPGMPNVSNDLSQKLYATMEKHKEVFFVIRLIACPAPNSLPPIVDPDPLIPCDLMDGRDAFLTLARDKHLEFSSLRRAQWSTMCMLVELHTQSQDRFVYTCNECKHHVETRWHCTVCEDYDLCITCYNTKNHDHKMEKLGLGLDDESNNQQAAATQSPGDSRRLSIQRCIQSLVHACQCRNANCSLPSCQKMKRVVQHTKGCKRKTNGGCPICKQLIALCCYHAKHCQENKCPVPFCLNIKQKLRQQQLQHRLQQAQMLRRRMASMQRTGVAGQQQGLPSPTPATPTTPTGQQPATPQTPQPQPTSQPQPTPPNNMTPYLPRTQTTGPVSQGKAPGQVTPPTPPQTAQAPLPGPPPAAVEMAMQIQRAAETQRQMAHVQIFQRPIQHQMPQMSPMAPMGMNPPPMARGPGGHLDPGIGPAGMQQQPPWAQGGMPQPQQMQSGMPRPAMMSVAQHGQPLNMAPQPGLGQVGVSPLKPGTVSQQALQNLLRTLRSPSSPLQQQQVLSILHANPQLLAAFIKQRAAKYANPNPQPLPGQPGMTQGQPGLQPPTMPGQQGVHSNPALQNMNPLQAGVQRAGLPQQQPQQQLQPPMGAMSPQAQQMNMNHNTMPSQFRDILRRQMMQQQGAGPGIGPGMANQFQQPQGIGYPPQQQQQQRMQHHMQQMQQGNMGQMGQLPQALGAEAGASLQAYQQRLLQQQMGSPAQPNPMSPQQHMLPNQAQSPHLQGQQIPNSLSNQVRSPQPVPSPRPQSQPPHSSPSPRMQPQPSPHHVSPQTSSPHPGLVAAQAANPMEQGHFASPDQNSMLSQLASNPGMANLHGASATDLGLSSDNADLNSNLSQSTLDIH
UniProt P20263: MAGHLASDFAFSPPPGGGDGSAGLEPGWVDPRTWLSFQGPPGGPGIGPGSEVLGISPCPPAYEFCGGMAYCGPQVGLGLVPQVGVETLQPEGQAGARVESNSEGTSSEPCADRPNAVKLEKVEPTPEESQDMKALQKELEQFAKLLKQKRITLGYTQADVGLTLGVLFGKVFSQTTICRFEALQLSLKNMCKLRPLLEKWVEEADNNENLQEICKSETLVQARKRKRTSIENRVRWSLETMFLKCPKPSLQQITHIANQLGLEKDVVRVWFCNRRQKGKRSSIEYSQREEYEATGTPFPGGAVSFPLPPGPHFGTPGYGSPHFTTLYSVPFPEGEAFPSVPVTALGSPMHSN
UniProt P60122: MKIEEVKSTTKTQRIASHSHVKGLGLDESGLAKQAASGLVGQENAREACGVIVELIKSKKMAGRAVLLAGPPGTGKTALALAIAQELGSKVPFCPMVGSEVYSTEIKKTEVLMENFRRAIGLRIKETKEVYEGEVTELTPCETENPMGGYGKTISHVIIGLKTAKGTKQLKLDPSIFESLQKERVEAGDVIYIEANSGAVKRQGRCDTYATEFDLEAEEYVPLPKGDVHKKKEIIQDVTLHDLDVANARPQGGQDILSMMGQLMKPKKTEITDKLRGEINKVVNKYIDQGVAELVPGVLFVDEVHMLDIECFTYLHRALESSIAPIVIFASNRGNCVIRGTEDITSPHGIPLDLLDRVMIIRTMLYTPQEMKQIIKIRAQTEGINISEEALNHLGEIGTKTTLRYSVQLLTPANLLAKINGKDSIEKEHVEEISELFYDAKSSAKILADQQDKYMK

[2] = target: p300 (mouse (endogenous in ES cells)) (UniProt B2RWS6)
[3] = target: Oct4 (mouse (endogenous in ZHBTc4 ES cells)) (UniProt P20263)

Which results are given for Pontin (from UniProt P60122 1-456)?
binding [1]: no binding; binding [2]: binds; binding [3]: binds
